The other results are listed elsewhere or left out.
Compound: Cc1cc(ccc1-c1ccccc1)C(=O)N1CCCN(CC1)C(=O)CCl [compound 10]
Experiment: probe-labelled cysteine peptide fold change vs DMSO (competition) (log2 fold change); higher = less target engagement (more negative = stronger competition)
Details: THP-1, incubation time: 4 h
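Note: competitive profiling in live THP-1 cells: cysteine peptides tagged with an iodoacetamide desthiobiotin (IA-DTB) probe, intensity after compound treatment relative to DMSO-treated cells.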

Chains of the proteins cited; added tags and fusions are not shown. Lines headed by an entry give the natural chain unless they say otherwise; changes in a name come on top.
UniProt O43747: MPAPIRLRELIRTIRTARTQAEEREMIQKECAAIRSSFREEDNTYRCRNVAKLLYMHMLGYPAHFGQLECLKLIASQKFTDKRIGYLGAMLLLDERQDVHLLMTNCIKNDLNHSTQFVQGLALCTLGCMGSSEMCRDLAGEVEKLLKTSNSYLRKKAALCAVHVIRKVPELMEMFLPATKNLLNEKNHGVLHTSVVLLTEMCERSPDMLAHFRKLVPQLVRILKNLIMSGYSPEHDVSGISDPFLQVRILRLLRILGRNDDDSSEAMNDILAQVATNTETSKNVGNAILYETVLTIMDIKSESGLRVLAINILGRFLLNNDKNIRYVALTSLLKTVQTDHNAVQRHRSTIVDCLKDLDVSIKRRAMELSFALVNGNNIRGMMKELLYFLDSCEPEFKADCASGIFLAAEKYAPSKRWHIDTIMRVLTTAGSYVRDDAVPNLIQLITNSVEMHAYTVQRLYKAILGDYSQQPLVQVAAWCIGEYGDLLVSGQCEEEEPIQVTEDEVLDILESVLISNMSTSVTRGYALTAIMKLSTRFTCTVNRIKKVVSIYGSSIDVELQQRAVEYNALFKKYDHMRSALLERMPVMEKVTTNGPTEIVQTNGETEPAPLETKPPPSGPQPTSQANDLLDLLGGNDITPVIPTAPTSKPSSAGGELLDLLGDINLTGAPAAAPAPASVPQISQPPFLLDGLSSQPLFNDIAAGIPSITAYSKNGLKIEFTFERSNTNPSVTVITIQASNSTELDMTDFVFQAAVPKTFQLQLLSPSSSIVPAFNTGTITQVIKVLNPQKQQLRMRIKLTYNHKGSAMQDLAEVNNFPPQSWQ
UniProt P20073: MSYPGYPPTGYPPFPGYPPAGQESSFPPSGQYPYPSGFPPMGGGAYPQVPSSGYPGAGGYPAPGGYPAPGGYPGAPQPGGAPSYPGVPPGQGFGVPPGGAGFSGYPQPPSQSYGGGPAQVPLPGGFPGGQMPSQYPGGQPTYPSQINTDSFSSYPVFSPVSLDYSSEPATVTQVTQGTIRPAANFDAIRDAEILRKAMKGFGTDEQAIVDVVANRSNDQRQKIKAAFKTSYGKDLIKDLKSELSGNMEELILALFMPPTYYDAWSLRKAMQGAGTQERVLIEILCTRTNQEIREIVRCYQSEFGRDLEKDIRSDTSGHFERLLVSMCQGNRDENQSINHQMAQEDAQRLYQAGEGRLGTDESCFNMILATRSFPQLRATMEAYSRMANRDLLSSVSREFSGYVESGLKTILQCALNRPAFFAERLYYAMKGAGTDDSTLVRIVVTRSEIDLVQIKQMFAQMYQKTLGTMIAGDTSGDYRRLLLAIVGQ
UniProt Q7Z5R6: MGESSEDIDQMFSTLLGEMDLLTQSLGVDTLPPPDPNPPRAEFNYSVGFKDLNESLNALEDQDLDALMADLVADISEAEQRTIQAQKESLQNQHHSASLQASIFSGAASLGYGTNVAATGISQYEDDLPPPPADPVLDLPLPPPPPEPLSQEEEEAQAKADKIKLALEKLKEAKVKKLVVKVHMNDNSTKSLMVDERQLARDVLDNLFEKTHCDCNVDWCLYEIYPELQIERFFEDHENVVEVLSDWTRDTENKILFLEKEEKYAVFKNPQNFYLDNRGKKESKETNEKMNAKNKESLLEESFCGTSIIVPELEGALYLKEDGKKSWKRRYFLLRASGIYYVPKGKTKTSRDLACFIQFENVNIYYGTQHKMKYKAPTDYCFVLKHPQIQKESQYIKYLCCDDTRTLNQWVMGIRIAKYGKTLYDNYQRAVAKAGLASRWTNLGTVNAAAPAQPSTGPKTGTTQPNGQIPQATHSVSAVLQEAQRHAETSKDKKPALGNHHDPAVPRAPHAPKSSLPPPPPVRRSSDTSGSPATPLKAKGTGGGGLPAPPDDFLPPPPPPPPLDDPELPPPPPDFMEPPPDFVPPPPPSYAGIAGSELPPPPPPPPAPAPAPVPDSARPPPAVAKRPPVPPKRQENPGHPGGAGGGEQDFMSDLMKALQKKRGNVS
UniProt Q8IV38: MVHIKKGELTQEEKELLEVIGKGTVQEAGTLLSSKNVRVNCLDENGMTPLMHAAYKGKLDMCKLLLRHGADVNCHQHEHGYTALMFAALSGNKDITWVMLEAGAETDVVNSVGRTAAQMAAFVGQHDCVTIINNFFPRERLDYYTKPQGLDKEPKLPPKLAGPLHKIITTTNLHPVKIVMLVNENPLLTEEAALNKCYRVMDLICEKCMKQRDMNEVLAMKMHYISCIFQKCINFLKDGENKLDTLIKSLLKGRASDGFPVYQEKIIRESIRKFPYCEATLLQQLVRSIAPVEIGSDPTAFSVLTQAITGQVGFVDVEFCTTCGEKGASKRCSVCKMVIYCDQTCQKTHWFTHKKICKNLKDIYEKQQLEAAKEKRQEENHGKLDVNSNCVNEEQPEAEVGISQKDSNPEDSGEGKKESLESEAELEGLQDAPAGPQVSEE
UniProt Q8N8A2: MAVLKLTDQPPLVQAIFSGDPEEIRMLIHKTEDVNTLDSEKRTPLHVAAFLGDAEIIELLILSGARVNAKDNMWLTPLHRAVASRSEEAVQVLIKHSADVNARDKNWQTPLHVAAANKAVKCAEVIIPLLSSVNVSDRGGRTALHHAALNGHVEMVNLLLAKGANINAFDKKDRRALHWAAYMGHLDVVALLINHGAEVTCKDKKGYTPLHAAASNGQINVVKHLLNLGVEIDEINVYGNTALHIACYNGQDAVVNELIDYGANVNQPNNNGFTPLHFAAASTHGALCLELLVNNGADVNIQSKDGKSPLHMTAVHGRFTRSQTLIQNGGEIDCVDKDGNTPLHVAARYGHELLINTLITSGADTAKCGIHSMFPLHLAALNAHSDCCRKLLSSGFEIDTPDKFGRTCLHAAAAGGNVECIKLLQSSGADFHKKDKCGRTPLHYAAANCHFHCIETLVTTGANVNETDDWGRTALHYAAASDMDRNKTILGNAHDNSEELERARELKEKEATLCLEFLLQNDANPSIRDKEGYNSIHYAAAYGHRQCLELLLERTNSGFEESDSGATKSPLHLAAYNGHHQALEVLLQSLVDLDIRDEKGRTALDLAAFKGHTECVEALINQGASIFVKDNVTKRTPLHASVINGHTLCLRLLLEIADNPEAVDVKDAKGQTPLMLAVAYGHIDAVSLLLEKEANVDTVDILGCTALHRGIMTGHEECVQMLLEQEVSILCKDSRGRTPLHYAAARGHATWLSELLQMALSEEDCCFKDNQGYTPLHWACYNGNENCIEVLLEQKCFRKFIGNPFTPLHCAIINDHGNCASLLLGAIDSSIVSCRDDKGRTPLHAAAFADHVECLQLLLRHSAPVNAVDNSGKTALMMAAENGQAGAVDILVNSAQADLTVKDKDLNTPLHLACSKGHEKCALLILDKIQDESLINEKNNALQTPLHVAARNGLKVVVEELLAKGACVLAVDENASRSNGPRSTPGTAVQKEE
UniProt O14727: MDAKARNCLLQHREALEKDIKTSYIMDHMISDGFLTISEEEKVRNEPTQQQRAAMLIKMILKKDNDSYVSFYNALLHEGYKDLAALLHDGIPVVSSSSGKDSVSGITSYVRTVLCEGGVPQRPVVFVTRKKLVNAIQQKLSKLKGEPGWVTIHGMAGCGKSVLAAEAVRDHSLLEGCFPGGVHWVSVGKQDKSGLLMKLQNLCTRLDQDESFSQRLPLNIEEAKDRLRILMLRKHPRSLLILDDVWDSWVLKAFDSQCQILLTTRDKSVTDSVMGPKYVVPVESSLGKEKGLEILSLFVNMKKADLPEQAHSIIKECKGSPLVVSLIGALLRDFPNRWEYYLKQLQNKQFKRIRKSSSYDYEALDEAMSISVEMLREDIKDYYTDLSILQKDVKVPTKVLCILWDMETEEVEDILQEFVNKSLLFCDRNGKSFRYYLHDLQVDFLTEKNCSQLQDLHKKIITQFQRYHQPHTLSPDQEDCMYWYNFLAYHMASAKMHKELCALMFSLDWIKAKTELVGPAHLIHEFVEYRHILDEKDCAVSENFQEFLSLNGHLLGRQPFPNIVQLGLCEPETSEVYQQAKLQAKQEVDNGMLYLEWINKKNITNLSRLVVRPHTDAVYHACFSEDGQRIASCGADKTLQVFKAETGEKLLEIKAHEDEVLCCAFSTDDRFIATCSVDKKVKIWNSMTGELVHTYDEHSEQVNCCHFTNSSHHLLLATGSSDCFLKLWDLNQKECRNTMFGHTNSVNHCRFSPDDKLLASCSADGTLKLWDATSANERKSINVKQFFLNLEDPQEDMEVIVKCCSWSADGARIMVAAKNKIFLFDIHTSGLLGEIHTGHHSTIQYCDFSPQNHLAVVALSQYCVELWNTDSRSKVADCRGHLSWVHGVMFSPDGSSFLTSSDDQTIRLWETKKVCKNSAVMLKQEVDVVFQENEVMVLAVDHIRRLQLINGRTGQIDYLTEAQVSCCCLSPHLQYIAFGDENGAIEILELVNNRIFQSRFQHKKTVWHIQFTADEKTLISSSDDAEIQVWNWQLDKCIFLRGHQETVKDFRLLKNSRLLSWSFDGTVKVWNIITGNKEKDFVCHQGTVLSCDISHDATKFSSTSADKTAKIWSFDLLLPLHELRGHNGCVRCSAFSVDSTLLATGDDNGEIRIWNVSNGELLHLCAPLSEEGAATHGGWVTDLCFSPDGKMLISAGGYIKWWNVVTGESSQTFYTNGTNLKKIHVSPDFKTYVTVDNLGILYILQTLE
UniProt P63010: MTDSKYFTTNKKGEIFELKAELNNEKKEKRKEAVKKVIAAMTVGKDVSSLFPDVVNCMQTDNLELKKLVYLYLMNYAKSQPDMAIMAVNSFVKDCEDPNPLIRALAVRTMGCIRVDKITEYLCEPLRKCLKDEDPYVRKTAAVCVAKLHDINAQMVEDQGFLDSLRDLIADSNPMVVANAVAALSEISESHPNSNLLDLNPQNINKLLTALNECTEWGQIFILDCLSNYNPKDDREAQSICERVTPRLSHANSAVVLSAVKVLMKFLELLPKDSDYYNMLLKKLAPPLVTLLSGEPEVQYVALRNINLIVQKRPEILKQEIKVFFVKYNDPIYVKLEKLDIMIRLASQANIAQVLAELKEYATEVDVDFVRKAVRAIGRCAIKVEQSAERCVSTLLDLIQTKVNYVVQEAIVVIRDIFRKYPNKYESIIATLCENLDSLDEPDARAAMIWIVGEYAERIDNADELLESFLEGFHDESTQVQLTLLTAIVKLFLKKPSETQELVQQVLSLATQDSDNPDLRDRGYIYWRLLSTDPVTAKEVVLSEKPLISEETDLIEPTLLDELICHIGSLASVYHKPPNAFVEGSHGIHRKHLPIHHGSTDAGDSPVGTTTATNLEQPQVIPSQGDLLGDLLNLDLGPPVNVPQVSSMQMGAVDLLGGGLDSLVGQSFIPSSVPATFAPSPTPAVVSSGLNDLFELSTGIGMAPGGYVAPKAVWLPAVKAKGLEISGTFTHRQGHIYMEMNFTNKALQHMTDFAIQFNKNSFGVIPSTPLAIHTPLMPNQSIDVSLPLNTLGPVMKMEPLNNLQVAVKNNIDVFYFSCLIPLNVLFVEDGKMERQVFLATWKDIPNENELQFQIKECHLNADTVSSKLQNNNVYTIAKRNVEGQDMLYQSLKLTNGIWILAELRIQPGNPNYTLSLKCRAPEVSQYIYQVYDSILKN
UniProt Q86XL3: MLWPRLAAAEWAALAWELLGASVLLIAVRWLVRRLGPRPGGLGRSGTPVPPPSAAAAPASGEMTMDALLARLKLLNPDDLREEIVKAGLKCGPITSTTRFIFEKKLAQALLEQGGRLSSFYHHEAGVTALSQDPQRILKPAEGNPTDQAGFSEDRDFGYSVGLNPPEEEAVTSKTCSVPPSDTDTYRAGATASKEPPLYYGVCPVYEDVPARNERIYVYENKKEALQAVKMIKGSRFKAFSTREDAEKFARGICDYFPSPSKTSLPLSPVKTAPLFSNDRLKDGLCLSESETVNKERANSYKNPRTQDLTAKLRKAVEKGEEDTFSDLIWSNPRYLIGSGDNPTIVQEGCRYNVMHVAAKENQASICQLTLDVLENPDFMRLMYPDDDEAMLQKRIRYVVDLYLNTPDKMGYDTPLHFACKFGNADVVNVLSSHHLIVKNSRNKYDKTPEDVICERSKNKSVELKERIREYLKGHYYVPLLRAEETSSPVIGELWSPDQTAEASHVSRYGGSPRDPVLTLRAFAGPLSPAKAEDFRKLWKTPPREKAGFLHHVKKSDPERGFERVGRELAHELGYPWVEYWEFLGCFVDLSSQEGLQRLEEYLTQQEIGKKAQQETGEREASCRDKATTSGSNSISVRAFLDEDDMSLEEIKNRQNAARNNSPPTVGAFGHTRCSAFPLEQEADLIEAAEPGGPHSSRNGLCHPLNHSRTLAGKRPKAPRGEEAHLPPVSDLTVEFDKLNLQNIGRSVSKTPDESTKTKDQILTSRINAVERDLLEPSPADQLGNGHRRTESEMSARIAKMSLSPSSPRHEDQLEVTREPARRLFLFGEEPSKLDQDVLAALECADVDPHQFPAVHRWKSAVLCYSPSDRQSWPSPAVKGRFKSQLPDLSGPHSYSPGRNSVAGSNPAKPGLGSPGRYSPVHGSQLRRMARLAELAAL

Row | Target | probe-labelled cysteine peptide fold change (10 µM) | probe-labelled cysteine peptide fold change (50 µM)
1 | AP1M1_Q9BXS5_241_FHQCVR (UniProt Q9BXS5) | -0.0973 | 0.247
2 | AP1G1_O43747_392_ELLYFLDSCEPEFK (UniProt O43747) | 0.183 | 0.273
3 | ANXA7_P20073_413_TILQCALNR (UniProt P20073) | 0.206 | 0.459
4 | APBB1IP_Q7Z5R6_381_YKAPTDYCFVLK (UniProt Q7Z5R6) | 0.0859 | -0.339
5 | APLP2_Q06481_160_MEVCENHQHWHTVVK (UniProt Q06481) | -0.242 | -0.455
6 | ANXA4_P09525_198_FLTVLCSR (UniProt P09525) | 0.162 | 0.00477
7 | ANKMY2_Q8IV38_74_HGADVNCHQHEHGYTALMFAALSGNK (UniProt Q8IV38) | 0.0756 | 0.345
8 | APOBEC3F_Q8IUX4_36_RNTVWLCYEVK (UniProt Q8IUX4) | 0.021 | 0.0976
9 | AP3D1_O14617_574_ASCILQLVK (UniProt O14617) | -0.178 | -0.161
10 | ANKMY2_Q8IV38_390_LDVNSNCVNEEQPEAEVGISQK (UniProt Q8IV38) | -0.281 | -0.0242
11 | ANKHD1_Q8IWZ3_2518_VIQNSTECTDAQQIWPGTWAPHIGNMHLK (UniProt Q8IWZ3) | 0.0222 | 0.581
12 | APMAP_Q9HDC9_149_DDEPVCGR (UniProt Q9HDC9) | 0.377 | 0.515
13 | ANKRD44_Q8N8A2_408_TCLHAAAAGGNVECIK (UniProt Q8N8A2) | 0.0536 | -0.313
14 | APAF1_O14727_749_NTMFGHTNSVNHCR (UniProt O14727) | 0.242 | 0.00807
15 | ANXA7_P20073_327_LLVSMCQGNRDENQSINHQMAQEDAQR (UniProt P20073) | -0.0706 | -0.21
16 | AP2B1_P63010_129_CLKDEDPYVR (UniProt P63010) | -0.000581 | -0.52
17 | APOBEC3G_Q9HC16_160_IMNYDEFQHCWSK (UniProt Q9HC16) | 0.0829 | 0.168
18 | ANLN_Q9NQW6_978_CQVNSSVEER (UniProt Q9NQW6) | 0.153 | 0.239
19 | APEX2_Q9UBZ4_45_ILDELDADIVCLQETK (UniProt Q9UBZ4) | -0.504 | 0.0664

Row | Target | probe-labelled cysteine peptide fold change (10 µM) | probe-labelled cysteine peptide fold change (50 µM)
20 | APAF1_O14727_538_DCAVSENFQEFLSLNGHLLGR (UniProt O14727) | 0.0135 | -0.00605
21 | APEH_P13798_594_DVQFAVEQVLQEEHFDASHVALMGGSHGGFISCHLIGQYPETYR (UniProt P13798) | 0.218 | -0.0284
22 | ANXA11_P50995_294_GVGTDEACLIEILASR (UniProt P50995) | -0.071 | -0.0761
23 | ANKLE2_Q86XL3_176_TCSVPPSDTDTYR (UniProt Q86XL3) | 0.0562 | 0.00564
24 | ANKRD44_Q8N8A2_914_DLNTPLHLACSK (UniProt Q8N8A2) | -0.204 | -0.355
25 | ANKRD28_O15084_838_TPLHAAAFTDHVECLQLLLSHNAQVNSVDSTGK (UniProt O15084) | -0.0345 | -0.511
26 | APEH_P13798_368_QLGENFSGIYCSLLPLGCWSADSQR (UniProt P13798) | -0.29 | -0.435
27 | APAF1_O14727_450_NCSQLQDLHK (UniProt O14727) | -0.131 | 0.0472
28 | ANKRD28_O15084_898_NTALHLACSK (UniProt O15084) | 0.179 | -0.00843
29 | AP3M1_Q9Y2T2_236_LLDDVSFHPCIR (UniProt Q9Y2T2) | 0.245 | 0.0204
30 | AP1G1_O43747_353_STIVDCLK (UniProt O43747) | -0.0326 | -0.0358
31 | AP2B1_P63010_241_DDREAQSICER (UniProt P63010) | -0.08 | 0.0189
32 | ANKRD28_O15084_472_GCTPLHYAATSDTDGK (UniProt O15084) | 0.0981 | -0.0308
33 | ANKLE2_Q86XL3_844_LDQDVLAALECADVDPHQFPAVHR (UniProt Q86XL3) | -0.0526 | 0.328
34 | ANKRD50_Q9ULJ7_442_MLAMSYTCQAK (UniProt Q9ULJ7) | -0.0618 | -0.0358
35 | ANO10_Q9NW15_92_ECNDNTMR (UniProt Q9NW15) | -0.0436 | 0.125
36 | AP1B1_Q10567_866_DCPLNAEAASSK (UniProt Q10567) | -0.0676 | -0.0476
37 | AP1G2_O75843_125_NDLSQGIQPVQGLALCTLSTMGSAEMCR (UniProt O75843) | 0.109 | 0.244
38 | ANP32B_Q92688_27_ELVLDNCK (UniProt Q92688) | -0.0885 | 0.13

Exported comma-delimited: entries from further up
Row,Target,probe-labelled cysteine peptide fold change (10 µM),probe-labelled cysteine peptide fold change (50 µM)
25,ANKRD28_O15084_838_TPLHAAAFTDHVECLQLLLSHNAQVNSVDSTGK (UniProt O15084),-0.0345,-0.511
26,APEH_P13798_368_QLGENFSGIYCSLLPLGCWSADSQR (UniProt P13798),-0.29,-0.435
28,ANKRD28_O15084_898_NTALHLACSK (UniProt O15084),0.179,-0.00843

From the supplement of paper PMC12067093, “Discovery and optimisation of a covalent ligand for TRIM25 and its application to targeted protein ubiquitination” (Chemical Science, 2025)
